Measurements reported in PubChem BioAssay AID504791 (Drosophila RNAi Screening Center, 2011)

Test: 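Genes whose knock-down strengthens or weakens small-RNA reporter silencing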 (primary screen)
System: Drosophila S2-derived reporter cells
Reagent: long dsRNA against Drosophila genes, about 150-250 ng dsRNA per well (siRNA assay); about 80-120 ng (miRNA assay)
Timing: about 5 days (siRNA assay); about 4 days (miRNA assay)
Conditions: copper sulfate induction of reporters: 25 µM (siRNA assay); 200 mM stated (miRNA assay), 1-2 days before reading
Measured: 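Dual luciferase assay: Renilla to firefly signal ratio in each well, scaled to the mean ratio of its plate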
Units: stable assay Renilla, run 1 in luminescence; stable assay firefly, run 1 in luminescence
Active means: 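First-pass picks had plate-scaled ratios over 1.5 for the siRNA assay, over 1.6 for the miRNA assay, or under 0.6; two distinct dsRNAs had to score alike on retest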
The deposit covers about 23,000 reagents; below is a random part of those with a known target gene and a result. Of all reagents, 199 (0.86%) were called active. 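Plate-scaled ratios behind the calls are not deposited; printed light signals are raw; many rows marked increased or decreased are still called inactive.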 No sequences are given here. Not given: the direction of the score.

The opening 3 entries as a preview:
| gene | amplicon | stable siRNA reporter change | miRNA reporter change | stable assay Renilla, run 1 | stable assay firefly, run 1 | activity call |
| --- | --- | --- | --- | --- | --- | --- |
| TyrRS-m | DRSC04286 | – | – | 50495 | 2.13e6 | inactive |
| hubl | DRSC06825 | – | – | 6438 | 3.39e5 | inactive |
| CG33252 | DRSC19162 | – | – | 4011 | 3.50e5 | inactive |

The list itself, repeating the preview:
| gene | amplicon | stable siRNA reporter change | miRNA reporter change | stable assay Renilla, run 1 | stable assay firefly, run 1 | activity call |
| --- | --- | --- | --- | --- | --- | --- |
| TyrRS-m | DRSC04286 | – | – | 50495 | 2.13e6 | inactive |
| hubl | DRSC06825 | – | – | 6438 | 3.39e5 | inactive |
| CG33252 | DRSC19162 | – | – | 4011 | 3.50e5 | inactive |
| MsR1 | DRSC08615 | – | – | 5383 | 3.76e5 | inactive |
| bip1 | DRSC11327 | – | reporter ratio raised past the hit cutoff | 8171 | 3.97e5 | inactive |
| BomS6 | DRSC21676 | reporter ratio raised past the hit cutoff | – | 4728 | 1.39e5 | inactive |
| CG13689 | DRSC00358 | – | – | 8335 | 4.82e5 | inactive |
| coil | DRSC07242 | reporter ratio raised past the hit cutoff | – | 14702 | 4.34e5 | active |
| Pfdn2 | DRSC10618 | – | – | 5976 | 4.54e5 | inactive |
| Cpr64Aa | DRSC08460 | – | – | 6023 | 3.51e5 | inactive |
| vkg | DRSC03632 | – | – | 7824 | 4.05e5 | inactive |
| CG7567 | DRSC16258 | – | – | 5875 | 3.70e5 | inactive |
| hmw | DRSC16277 | – | – | 9501 | 3.30e5 | inactive |
| Spt | DRSC07123 | – | – | 7226 | 5.63e5 | inactive |
| Sec6 | DRSC06932 | – | – | 12680 | 4.14e5 | inactive |
| CG12288 | DRSC02155 | – | – | 7598 | 4.15e5 | inactive |
| Pdi | DRSC11250 | – | – | 7807 | 3.28e5 | inactive |
| Ctps | DRSC09342 | – | – | 3703 | 3.51e5 | inactive |
| Ctps | DRSC10728 | – | – | 8485 | 2.53e5 | inactive |
| Ctps | DRSC10729 | – | – | 5151 | 3.34e5 | inactive |
| CG14658 | DRSC12244 | – | – | 8099 | 4.69e5 | inactive |
| CG15631 | DRSC00466 | – | – | 8043 | 4.39e5 | inactive |
| eIF4E6 | DRSC14853 | – | – | 6830 | 4.31e5 | inactive |
| CG34056 | DRSC08374 | – | – | 6299 | 4.63e5 | inactive |
| boly | DRSC21629 | – | – | 7909 | 3.64e5 | inactive |
| CG42755 (retired record) | DRSC09105 | – | – | 5391 | 3.78e5 | inactive |
| CG42755 (retired record) | DRSC09106 | – | – | 4364 | 3.42e5 | inactive |
| Sox21b | DRSC10025 | – | – | 4116 | 3.00e5 | inactive |
| Sox21b | DRSC10634 | – | – | 5887 | 2.27e5 | inactive |
| Sox21b | DRSC22788 | – | – | 3179 | 2.44e5 | inactive |
| Sox21b | DRSC23005 | – | – | 5067 | 4.13e5 | inactive |
| CG5089 | DRSC06914 | – | – | 11312 | 4.42e5 | inactive |
| Wdr82 | DRSC02595 | – | reporter ratio raised past the hit cutoff | 12103 | 1.78e6 | inactive |
| Wdr82 | DRSC21723 | – | reporter ratio raised past the hit cutoff | 10965 | 4.69e5 | active |
